Results: patent publication EP3815699A1, “NEW MEANS AND METHODS FOR THERAPY AND DIAGNOSIS OF […]” (Technische Universität München, priority 2019, dated 2021)
No constants are given. Whether binding was seen depends on the method and setting. For some assays here: Binding seen in cells or lysates may run through a third protein. Some binding calls cover weakened binding; strength is not graded here.

Chains of the proteins cited; added tags and fusions are not shown.
UniProt P29590: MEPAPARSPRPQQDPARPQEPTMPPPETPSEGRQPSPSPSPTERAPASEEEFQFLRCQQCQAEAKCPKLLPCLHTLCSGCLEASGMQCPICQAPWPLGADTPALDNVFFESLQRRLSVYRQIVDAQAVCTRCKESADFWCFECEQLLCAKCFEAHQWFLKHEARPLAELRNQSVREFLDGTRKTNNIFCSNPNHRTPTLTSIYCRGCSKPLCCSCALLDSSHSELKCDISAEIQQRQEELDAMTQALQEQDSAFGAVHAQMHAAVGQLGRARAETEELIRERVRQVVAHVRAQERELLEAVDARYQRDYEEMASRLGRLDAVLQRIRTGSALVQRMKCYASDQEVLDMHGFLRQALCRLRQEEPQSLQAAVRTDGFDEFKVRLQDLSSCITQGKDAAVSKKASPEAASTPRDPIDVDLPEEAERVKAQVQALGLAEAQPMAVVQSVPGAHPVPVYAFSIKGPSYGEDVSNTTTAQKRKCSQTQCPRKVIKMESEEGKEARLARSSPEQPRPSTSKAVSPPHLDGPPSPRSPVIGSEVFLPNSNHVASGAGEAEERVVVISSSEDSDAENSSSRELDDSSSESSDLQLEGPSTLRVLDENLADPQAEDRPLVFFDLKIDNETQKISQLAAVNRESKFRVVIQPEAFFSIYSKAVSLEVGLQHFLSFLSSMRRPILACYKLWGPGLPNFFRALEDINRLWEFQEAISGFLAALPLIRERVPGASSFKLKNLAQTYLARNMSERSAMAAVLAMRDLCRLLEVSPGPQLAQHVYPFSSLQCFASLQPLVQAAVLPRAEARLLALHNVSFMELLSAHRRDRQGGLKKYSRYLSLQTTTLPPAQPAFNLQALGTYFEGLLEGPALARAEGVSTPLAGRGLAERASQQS

Key:
[1] = molecular target: PML (endogenous, HepaRG cells) (UniProt P29590); experiment: anti-PML immunoprecipitation from transfected HepaRG cells, anti-E2A immunoblot
[2] = molecular target: PML (endogenous, HepaRG cells) (UniProt P29590); experiment: biochemical analysis (co-immunoprecipitation, Example 9)
[3] = molecular target: PML (endogenous, HepaRG cells) (UniProt P29590); experiment: title of the legend of Figure 7, anti-PML immunoprecipitation
[4] = molecular target: PML (endogenous, HepaRG cells) (UniProt P29590); experiment: anti-PML immunoprecipitation from HepaRG cells infected with HAdV wt, anti-E2A immunoblot
[5] = molecular target: PML (endogenous, HepaRG cells) (UniProt P29590); experiment: anti-PML immunoprecipitation from HepaRG cells infected with the HAdV E4orf3 mutant, anti-E2A immunoblot

Measured: binding

E2A wt, untagged (pCMX3bE2A / pE2A-wt, or expressed from HAdV wt H5pg4100) (from UniProt P03265 1-529)
binds: all assays above
